From doi:10.1101/2022.04.26.489513 come the findings set out here.

These are yes or no findings as the source states them, for the method shown. Some results given as binding are weak or reduced against the parent protein; the word gives no strength.

In this experiment the target is T1, Tom40 (S. cerevisiae (endogenous in yeast mitochondria)) (UniProt P23644).
T1 sequence: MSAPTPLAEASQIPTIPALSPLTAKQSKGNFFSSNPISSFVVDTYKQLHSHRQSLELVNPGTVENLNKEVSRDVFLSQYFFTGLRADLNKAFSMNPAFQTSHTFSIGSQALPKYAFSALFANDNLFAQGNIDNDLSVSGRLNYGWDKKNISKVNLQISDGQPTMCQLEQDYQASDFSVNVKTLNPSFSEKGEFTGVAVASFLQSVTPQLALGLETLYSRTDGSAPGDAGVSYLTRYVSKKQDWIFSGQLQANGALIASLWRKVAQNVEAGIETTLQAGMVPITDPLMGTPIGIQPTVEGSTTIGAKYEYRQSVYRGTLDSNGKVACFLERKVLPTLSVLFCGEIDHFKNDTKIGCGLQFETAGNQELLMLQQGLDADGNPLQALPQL
In words: native gel or EMSA. A general note: In EMSA bound probe runs differently from free probe, usually more slowly.

B1: Tom22 (protein, UniProt P49334 1-152)
chain: MVELTEIKDDVVQLDEPQFSRNQAIVEEKASATNNDVVDDEDDSDSDFEDEFDENETLLDRIVALKDIVPPGKRQTISNFFGFTSSFVRNAFTKSGNLAWTLTTTALLLGVPLSLSILAEQQLIEMEKTFDLQSDANNILAQGEKDAAATAN
With B1, the binding result is “binds”.
